We go through 20 molecules from PubChem BioAssay AID248 (DTP/NCI, 2004).

For the assay, the system named is L1210 leukemia ip in BDF1 mice, survival T/C. In words: NCI In Vivo Anticancer Drug Screen. Data for tumor model L1210 Leukemia (intraperitoneal) in B6D2F1 (BDF1) mice. The conditions noted are these: T/C endpoint: mean survival time, higher T/C = longer survival.
The mark [1] stands for this setting: dose: 100.0 mg/kg/injection, schedule: Q04DX003 (ip), vehicle: saline with Tween-80.
The mark [2] stands for this setting: dose: 200.0 mg/kg/injection, schedule: Q04DX003 (ip), vehicle: saline with Tween-80.
[3] abbreviates: dose: 400.0 mg/kg/injection, schedule: Q04DX003 (ip), vehicle: saline with Tween-80.
[4] abbreviates: dose: 200.0 mg/kg/injection, schedule: Q01DX009 (ip), vehicle: saline with Tween-80.
The mark [5] stands for this setting: dose: 100.0 mg/kg/injection, schedule: Q01DX001 (ip), vehicle: saline.
The mark [6] stands for this setting: dose: 200.0 mg/kg/injection, schedule: Q01DX001 (ip), vehicle: saline.
The mark [7] stands for this setting: dose: 400.0 mg/kg/injection, schedule: Q01DX001 (ip), vehicle: saline.
[8] abbreviates: dose: 400.0 mg/kg/injection, schedule: Q01DX001 (ip), vehicle: saline with Tween-80.
Where [9] appears, read: dose: 100.0 mg/kg/injection, schedule: Q04DX003 (ip), vehicle: Klucel (hydroxypropylcellulose) (HPC).
[10] abbreviates: dose: 200.0 mg/kg/injection, schedule: Q04DX003 (ip), vehicle: Klucel (hydroxypropylcellulose) (HPC).
The mark [11] stands for this setting: dose: 400.0 mg/kg/injection, schedule: Q04DX003 (ip), vehicle: Klucel (hydroxypropylcellulose) (HPC).
Where [12] appears, read: dose: 75.0 mg/kg/injection, schedule: Q01DX001 (ip), vehicle: saline.

The list is a part of this screen's results and no random one: it gathers tests that were run many times, whatever their T/C, doses with no T/C, and many T/C values between a quarter and a half above the control. Further doses and runs are listed elsewhere. T/C gives the treated animals as a percentage of the vehicle group. Some entries give survivors of the animals treated and no T/C: the source files T/C as zero there, which appears to mark a toxic dose or a test without result, not a measured value. Some doses without a T/C left all or most animals alive at the check, yet need not have been tolerated: survival well below the control is almost never listed, so the zero probably covers shortened survival too. Counts of survivors are from the toxicity check (mostly the fifth day) where no day follows; animals may have died later. Schedules are NCI's codes, read here as Q, the interval in days (D) or hours (H), X, the number of doses. Some schedule codes hold Z or #, which are not explained here. Some entries hold several experiments; the results are listed from low to high. For survival time, the PubChem record calls one and a half times the control and up active, and a quarter to a half above the control has no call in these data; cut-offs in other NCI protocols can differ. Additions like (4×) stand for listed records that agree. Some T/C values are followed by the survivors on the day toxicity was checked, most often the fifth; without a count, all were alive then.

As for `CCC(C)C(CN)(CCN1CCCCC1)Cc1cccc2ccccc12` (stereo not given), the survivor count under setting [1] is given as 4 of 6, the survivor count under setting [2] is 0 of 6 and the survivor count under setting [3] is 0 of 6.

Consider `Cc1ccc(S(=O)(=O)Oc2ccccc2NC(=O)c2ccccc2)cc1`, for which the survivor count under setting [4] was 3 of 3.

Regarding `CCN(CC)CCC(O)c1ccc2c(c1)[nH]c1ccccc12` (stereo not given), where the note is “dose: 300.0 mg/kg/injection, schedule: Q01DX001 (ip), vehicle: carboxymethylcellulose (CMC)”, the survivor count was 2 of 6.

Regarding `Cc1nc(N)cc(=O)[nH]1`, the survivor count (dose: 400.0 mg/kg/injection, schedule: Q01DX009 (ip), vehicle: water) is 6 of 6.

Consider `O=C1CCC[C@@H]2[C@H]3CCCN4CCC[C@@H](CN12)[C@@H]34`, for which the survivor count (dose: 300.0 mg/kg/injection, schedule: Q01DX001 (ip), vehicle: saline) is listed as 0 of 6.

For `O=c1cccccc1O.O=c1cccccc1O.[Cu]`, the survivor count by setting is: (dose: 12.5 mg/kg/injection, schedule: Q01DX009 (ip), vehicle: Klucel (hydroxypropylcellulose) (HPC)) 4 of 6; (dose: 25.0 mg/kg/injection, schedule: Q01DX009 (ip), vehicle: Klucel (hydroxypropylcellulose) (HPC)) 0 of 6; (dose: 50.0 mg/kg/injection, schedule: Q01DX009 (ip), vehicle: Klucel (hydroxypropylcellulose) (HPC)) 0 of 6; under setting [5], 0 of 6; (dose: 100.0 mg/kg/injection, schedule: Q01DX009 (ip), vehicle: Klucel (hydroxypropylcellulose) (HPC)) 0 of 6; under setting [6], 0 of 6. Moreover, the survivor count is given as 0 of 6 (dose: 200.0 mg/kg/injection, schedule: Q01DX009 (ip), vehicle: Klucel (hydroxypropylcellulose) (HPC)); 0 of 6 under setting [7]; 0 of 6 (dose: 400.0 mg/kg/injection, schedule: Q01DX009 (ip), vehicle: Klucel (hydroxypropylcellulose) (HPC)).

For the molecule `Cn1nc(C(=O)O)c(=O)[nH]c1=O`, the survivor count (dose: 200.0 mg/kg/injection, schedule: Q01DX Z (ip), vehicle: methylcellulose (MC)) was 6 of 6.

As to `OC(c1ccc(F)cc1)(c1ccc(F)cc1)C1CC1`, the survivor count under setting [8] is 3 of 6.

As for `CCC[CH2][Hg][Cl]`, the survivor count was 0 of 6 (dose: 25.0 mg/kg/injection, schedule: Q01DX009 (ip), vehicle: saline with Tween-80); 0 of 6 under setting [9]; 0 of 6 under setting [10]; 0 of 6 under setting [11].

Take `CC(C)OP(=S)(S)OC(C)C.[Cu+2]`: the survivor count is on record as 2 of 6 (dose: 12.5 mg/kg/injection, schedule: Q04DX003 (ip), vehicle: DMSO); 1 of 6 (dose: 25.0 mg/kg/injection, schedule: Q04DX003 (ip), vehicle: DMSO); 0 of 6 (dose: 50.0 mg/kg/injection, schedule: Q04DX003 (ip), vehicle: DMSO); 0 of 6 (dose: 100.0 mg/kg/injection, schedule: Q04DX003 (ip), vehicle: DMSO); 0 of 6 (dose: 200.0 mg/kg/injection, schedule: Q04DX003 (ip), vehicle: DMSO); 0 of 6 (dose: 400.0 mg/kg/injection, schedule: Q04DX003 (ip), vehicle: DMSO).

Consider `Cc1ccc([I+]c2ccc(C)cc2)cc1`, for which the survivor count runs as follows: (dose: 64.0 mg/kg/injection, schedule: Q04DX002 (ip), vehicle: saline) 0 of 3; (dose: 128.0 mg/kg/injection, schedule: Q04DX002 (ip), vehicle: saline) 0 of 3; (dose: 256.0 mg/kg/injection, schedule: Q04DX002 (ip), vehicle: saline) 0 of 3.

On to `BrC(c1ccccc1)C(Br)[n+]1ccccc1` (stereo not given), for which the survivor count reads like this: (dose: 150.0 mg/kg/injection, schedule: Q01DX001 (ip), vehicle: other) 0 of 6; (dose: 300.0 mg/kg/injection, schedule: Q01DX001 (ip), vehicle: other) 1 of 6.

As to `O=C(NCc1cnccn1)Oc1ccc([N+](=O)[O-])cc1`, under setting [4], the survivor count was 3 of 6.

`CN(C)S(=O)(=O)c1ccc(CC(O)(c2ccccc2)c2ccccc2)cc1`: under “dose: 200.0 mg/kg/injection, schedule: Q01DX001 (ip), vehicle: carboxymethylcellulose (CMC)”, the T/C is 131 % of control.

As for `CC1=C(Cl)C(Cl)(Cl)C(=O)C(=O)C1(Cl)Cl`, the survivor count under setting [9] is 1 of 6, the survivor count under setting [10] is 0 of 6 and the survivor count under setting [11] is reported as 0 of 6.

As for `CS(=O)NOCCCCONS(C)=O` (stereo not given), the survivor count (dose: 400.0 mg/kg/injection, schedule: Q04DX002 (ip), vehicle: saline with Tween-80) is on record as 1 of 3.

Regarding `Nc1nc(=S)c2nc(CNc3ccc(C(=O)NC(CCC(=O)O)C(=O)O)cc3)nnc2[nH]1` (stereo not given), under setting [8], the survivor count is recorded as 0 of 4.

Regarding `CNC(=S)N/N=C/c1cnccn1`, the survivor count under setting [7] is 1 of 4.

`[Cl][Sn]([CH2]c1ccccc1)([CH2]c1ccccc1)[CH2]c1ccccc1`: under “dose: 1.56 mg/kg/injection, schedule: Q04DX002 (ip), vehicle: saline with Tween-80”, the T/C was 127 % of control [2 of 3 alive]. Further, the survivor count reads like this: (dose: 3.13 mg/kg/injection, schedule: Q04DX002 (ip), vehicle: saline with Tween-80) 1 of 3; (dose: 6.25 mg/kg/injection, schedule: Q04DX002 (ip), vehicle: saline with Tween-80) 3 of 3; (dose: 12.5 mg/kg/injection, schedule: Q04DX002 (ip), vehicle: saline with Tween-80) 3 of 3; (dose: 25.0 mg/kg/injection, schedule: Q04DX002 (ip), vehicle: saline with Tween-80) 1 of 3; (dose: 50.0 mg/kg/injection, schedule: Q04DX002 (ip), vehicle: saline with Tween-80) 1 of 3; under setting [1], 0 of 6. In addition, the survivor count is, setting by setting: under setting [2], 0 of 6; under setting [3], 0 of 6.

As to `O=P(N1CCOCC1)(N1CC1)N1CC1`, the T/C (dose: 8.0 mg/kg/injection, schedule: Q01DX015 (ip), vehicle: saline) was 139 % of control; the T/C (dose: 22.0 mg/kg/injection, schedule: Q01DX001 (ip), vehicle: saline, evaluated on day 30) was 129 and 132 % of control; the T/C (dose: 22.0 mg/kg/injection, schedule: Q01DX001 (ip), vehicle: saline, run until all animals had died) was 123 (2×), 126, 134 % of control; the T/C (dose: 33.0 mg/kg/injection, schedule: Q01DX001 (ip), vehicle: saline) was 143 and 149 % of control; the T/C (dose: 50.0 mg/kg/injection, schedule: Q01DX001 (ip), vehicle: saline, evaluated on day 30) was 142 % of control; the T/C (dose: 50.0 mg/kg/injection, schedule: Q01DX001 (ip), vehicle: saline, run until all animals had died) is on record as 140, 151, 157, 162, 235 % of control. Under setting [12], the T/C is listed as 121, 149, 162, 221 % of control. The survivor count reads like this: (dose: 50.0 mg/kg/injection, schedule: Q01DX009 (ip), vehicle: saline) 7 of 7; under setting [12], 3 of 6; under setting [5], 0 of 4, 2 of 4, 4 of 4; (dose: 100.0 mg/kg/injection, schedule: Q04DX003 (ip), vehicle: saline) 4 of 7; under setting [6], 3 of 4; (dose: 200.0 mg/kg/injection, schedule: Q04DX003 (ip), vehicle: saline) 5 of 7. Moreover, the survivor count is on record as 2 of 4 under setting [7] and 3 of 7 (dose: 400.0 mg/kg/injection, schedule: Q04DX003 (ip), vehicle: saline).
